± gives the standard deviation of the averaged measurements. Most values lie at the floor of the assay. Slopes are relative: functional sequences can read slightly below zero.
Test system: Saccharomyces cerevisiae PS128 hsf1 delta, HSF1(1-493) fusion
Experiment: growth estimate (transactivation domain function in HSF1 fusion, heat-shock survival) (a.u. (slope of normalised read count over time)); higher = stronger growth at 37°C, i.e. more transactivation activity
Conditions: library: random library

Substance	growth estimate
SLSIKPCCYELAALDDQT	< -0.25
SLSNRQYLYL	< -0.25
SLSRPLNR	< -0.25
SLSRQWRG	< -0.25
SLSSYTCPSVTRRKPQQFST	< -0.25
SLTAEDLSVVSR	-0.246
SLTWYVLVSGCVSNSQYFVA	< -0.25
SLVGLTGC	< -0.25
SLVGNGALGVSKLSLRSAVH	< -0.25
SLVGVESAFRLCRKLLDVTR	< -0.25
SLVILPGPARSVFPRYGSG	< -0.25
SLVNALAPL	< -0.25
SLVQLDAVDQIEHFHPCVCT	-0.236
SLVSHGIPCATPRDDTKSCW	< -0.25
SLVSILKSDIPLVPACDFGT	< -0.25
SLVVAYRKRCVCGASVR	< -0.25
SLVWSSSWGDGTNVGLT	-0.245
SLVYFWSECNQVLHHIP	< -0.25
SLWGRISRSYGLPTTIAGIR	< -0.25
SLYAGKYGQDNAEPSLRACC	< -0.25
SLYLIGADRAVSIGWRG	< -0.25
SMCSWNAQTGSLVLHEVLSR	< -0.25
SMGGPYVM	< -0.25
SMHLDYMRVGELLSHRGTGL	< -0.25

Substance	growth estimate
SMIVVRLRESVIEQSQRRFR	< -0.25
SMK	< -0.25
SMKRLFLLAPTANCIKHDGT	< -0.25
SMPVCASLGGECSGLVVLGS	< -0.25
SMRRGNRGMWDVGTYHPPGR	< -0.25
SMSNNCQAKCATGW	< -0.25
SMSTIGKGLFESIRIGRCPI	< -0.25
SMVGCWAAIRKS	< -0.25
SMVTDAIS	< -0.253
SNAGGFD	< -0.25
SNARKLGAKISLTGLAGPHT	< -0.25
SNCQADRLCCTLGLIICYAP	< -0.25
SNCVRVIIFVTRTGSTKPRR	< -0.25
SNIKWYWVPRQLVHYMI	< -0.25
SNKTTR	< -0.25
SNL	< -0.25
SNLLTRNHTPHRDTASVSSN	< -0.25
SNLSRIAEEKEYFNGPHRAL	< -0.25
SNPFPATHWYRPLIF	< -0.25
SNPSSCGLGVGPALVG	< -0.25
SNQ	< -0.25
SNRNTRSGLSSTPLSVSDVR	< -0.25
SNRTGSAVRQRVVDRESSPT	< -0.25
SNSSPLCLTRSKKRERRHVG	< -0.25

Taken from above:
growth estimate with SLVQLDAVDQIEHFHPCVCT reads -0.236
growth estimate with SMSNNCQAKCATGW reads < -0.25

The listing continues:

Substance	growth estimate
SNTRAILSTVRDYLRQRSSF	< -0.25
SNVHTINGEKYPRGGARQW	< -0.25
SNVMPLAKVPRVNVKCVKAS	< -0.25
SNVRACAIKPAGSCDPPANT	< -0.25
SNWVE	< -0.25
SPAAQAVGTHLQHVRRGVVQ	< -0.25
SPADEPRCQRRLKVKANRFG	< -0.25
SPAQRVMYHSLNLRATRELG	< -0.25
SPARLKCFCGRRDAGVATTL	< -0.25
SPCRIWSREENAIGLLGGRS	< -0.25
SPEEPGLGIVHGVTATLDSK	< -0.25
SPFAASETYN	< -0.25
SPFEHPFVLRGRT	< -0.25
SPFKGKPSTGLEGCRVVLAL	< -0.25
SPG	< -0.25
SPGHP	< -0.25
SPGRGRP	< -0.25
SPGTKPNGAKTKITLKPK	< -0.25
SPGTRGVTKLHS	< -0.25
SPGWVSVVPLRRPWWWCKKS	< -0.25
SPHIDPFKCRAQSPFAGGIC	< -0.25
SPISSDL	< -0.25
SPKLGFMMNVDLRVSHEPRV	< -0.25
SPKRGNTSWLRILFLSTWIS	< -0.25

Substance	growth estimate
SPL	< -0.25
SPLALGNVCESSAS	< -0.25
SPLHASTG	< -0.25
SPLQGRGGQSKRPPRITRPV	< -0.25
SPLQTSCTITYRRRR	< -0.25
SPLSGLEHDLNYSKTIPQQH	< -0.25
SPLTAVVSRSAVDDNLVVQD	< -0.25
SPMHTCTGRSVGLDRVFTPV	< -0.25
SPNKTVVTRDQRTRTDLWG	< -0.25
SPPLFPLQPGILQGGGPTRG	< -0.25
SPPNIVKRFGIVTRVWACRR	-0.246
SPPRP	< -0.25
SPPRTKERGPL	< -0.25
SPQIRCDALPYGLGRHVAHG	-0.245
SPR	-0.2486 ± 0.0024
SPRCQLECYGRASPGLLSLR	< -0.25
SPRLEEIRSRVTVWSSGLSP	< -0.25
SPRVG	< -0.25
SPSAEVAPSMILTLASLSHG	< -0.25
SPSGGCEGSMIGDLSLAL	< -0.25
SPSLGLQAVAFFSSETGNAL	< -0.25
SPSLRRLIYLSNT	< -0.25
SPTIFWKVTDRRA	-0.248
SPTVALRSCPKCRS	< -0.25

Substance	growth estimate
SPVAKICLN	< -0.25
SPVGSGNSLPSLYNIPIHC	< -0.25
SPVQPDALSSVSKQWYEPAC	< -0.25
SPVSPSPLSCHSS	< -0.25
SPWTPT	< -0.25
SQAGSQ	< -0.25
SQAKVILLM	< -0.25
SQAMHIC	< -0.25
SQCH	< -0.25
SQESSGQIY	< -0.25
SQFLS	< -0.25
SQFVAI	< -0.25
SQGGFPRMRTTGIRKYPVD	< -0.25
SQGGVMHSWRYR	< -0.25
SQGHLD	< -0.25
SQGLLRFIEREFER	< -0.25
SQGPAEWV	< -0.25
SQGPV	< -0.25
SQGSRWWNIRIKGDGD	< -0.25
SQGVHPGIMRPTHMTKLGLG	-0.248
SQIEYNVANLLPCRDWSFPN	< -0.25
SQIWGLDSRVRSSFRRRALV	< -0.25
SQIYVSHWKCGRL	< -0.25
SQLERVNHVLRRLRHALSEC	< -0.25

Substance	growth estimate
SQLNAYHYVFASHPVPMCTA	< -0.25
SQLTICQMERALPRDGARPD	< -0.25
SQLTSLGLPFLRRSTSR	< -0.25
SQNASRAANHLIVVTARREP	< -0.25
SQPIRQSAQLDRGVLQGPQP	< -0.25
SQPRSGQSRFAPV	< -0.25
SQQLAEHGQERGSHKRVDKI	< -0.25
SQRGVTINRESETPLMCTTN	< -0.25
SQRP	< -0.25
SQRPDAIAWSV	< -0.25
SQRVQSHVVAAA	< -0.25
SQSIC	< -0.25
SQSLLGRGHRGIS	< -0.25
SQSMLQIEVRRGPCRHLPSC	< -0.25
SQSPISEISFL	< -0.25
SQSRRGVDILTFALYKKVTP	< -0.25
SQSSGAKTAVALLARDMESR	< -0.25
SQTAIYD	< -0.25
SQV	< -0.25
SQVPPKARTSEGRENSAWCA	< -0.25
SQVSVFMRPLAYTSNRTDVQ	< -0.25
SQWKVI	< -0.25
SQWSGHGRKSVLVPALLPSE	< -0.25
SRAAST	< -0.25

— the supplement of paper PMC5949888
